Results on two molecules are retold here after article PMC3567142.

The chains behind the UniProt entries cited, without tags or fusion partners.
UniProt P35201: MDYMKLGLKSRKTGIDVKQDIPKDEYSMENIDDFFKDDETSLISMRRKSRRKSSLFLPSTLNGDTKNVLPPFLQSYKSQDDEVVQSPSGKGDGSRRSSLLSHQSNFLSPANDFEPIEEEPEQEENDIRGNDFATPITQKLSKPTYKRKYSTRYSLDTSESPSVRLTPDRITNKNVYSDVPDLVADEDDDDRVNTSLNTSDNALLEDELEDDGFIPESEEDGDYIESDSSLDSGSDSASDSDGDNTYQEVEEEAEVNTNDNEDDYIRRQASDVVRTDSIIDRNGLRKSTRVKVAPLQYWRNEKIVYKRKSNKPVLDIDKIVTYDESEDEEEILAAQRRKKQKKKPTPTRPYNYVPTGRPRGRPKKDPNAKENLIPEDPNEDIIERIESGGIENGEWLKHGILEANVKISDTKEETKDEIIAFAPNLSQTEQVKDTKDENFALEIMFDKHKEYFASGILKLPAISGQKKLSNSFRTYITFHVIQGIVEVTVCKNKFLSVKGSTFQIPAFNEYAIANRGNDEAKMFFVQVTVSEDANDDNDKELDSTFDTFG

The target of experiment [1] is T1, Mub1-Flag (budding yeast) (UniProt Q03162).
T1 sequence: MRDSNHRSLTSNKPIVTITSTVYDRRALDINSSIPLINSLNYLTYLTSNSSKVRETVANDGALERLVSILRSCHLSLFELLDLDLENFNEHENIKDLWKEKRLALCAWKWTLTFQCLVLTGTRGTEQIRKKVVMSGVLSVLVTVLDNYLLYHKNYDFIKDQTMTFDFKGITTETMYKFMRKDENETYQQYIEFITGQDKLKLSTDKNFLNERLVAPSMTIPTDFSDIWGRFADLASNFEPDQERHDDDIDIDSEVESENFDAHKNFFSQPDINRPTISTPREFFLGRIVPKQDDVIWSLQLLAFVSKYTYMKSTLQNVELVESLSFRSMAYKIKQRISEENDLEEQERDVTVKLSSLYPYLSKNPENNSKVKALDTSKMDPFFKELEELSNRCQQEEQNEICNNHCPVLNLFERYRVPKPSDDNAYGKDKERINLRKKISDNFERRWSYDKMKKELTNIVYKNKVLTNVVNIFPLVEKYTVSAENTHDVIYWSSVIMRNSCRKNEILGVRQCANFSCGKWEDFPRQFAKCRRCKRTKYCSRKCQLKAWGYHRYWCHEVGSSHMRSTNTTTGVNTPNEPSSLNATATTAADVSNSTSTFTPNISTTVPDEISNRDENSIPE
Put plainly: co-IP; anti-Flag immunoprecipitation from budding yeast lysate in BH/0.15; immunoblot (anti-Myc, anti-Mif2); Mif2-Flag with Mub1-Myc in the presence or absence of UBR2. Background: A western blot detects proteins with antibodies after separation by electrophoresis.

Experiment [2] addresses CENP-C^Mif2-Flag (budding yeast) (UniProt P35201). The description is as above.

These are yes or no findings as the source states them, for the method shown. In cells and extracts the contact can be indirect. Some entries that bind do so weakly or less than the wild type. Sequences can lack the tags named with a protein.

In the case of CENP-C^Mif2 (from UniProt P35201 1-549), the binding result in experiment [1] was “binds”.

B1: Mub1-Myc (protein, UniProt Q03162 1-620)
chain: MRDSNHRSLTSNKPIVTITSTVYDRRALDINSSIPLINSLNYLTYLTSNSSKVRETVANDGALERLVSILRSCHLSLFELLDLDLENFNEHENIKDLWKEKRLALCAWKWTLTFQCLVLTGTRGTEQIRKKVVMSGVLSVLVTVLDNYLLYHKNYDFIKDQTMTFDFKGITTETMYKFMRKDENETYQQYIEFITGQDKLKLSTDKNFLNERLVAPSMTIPTDFSDIWGRFADLASNFEPDQERHDDDIDIDSEVESENFDAHKNFFSQPDINRPTISTPREFFLGRIVPKQDDVIWSLQLLAFVSKYTYMKSTLQNVELVESLSFRSMAYKIKQRISEENDLEEQERDVTVKLSSLYPYLSKNPENNSKVKALDTSKMDPFFKELEELSNRCQQEEQNEICNNHCPVLNLFERYRVPKPSDDNAYGKDKERINLRKKISDNFERRWSYDKMKKELTNIVYKNKVLTNVVNIFPLVEKYTVSAENTHDVIYWSSVIMRNSCRKNEILGVRQCANFSCGKWEDFPRQFAKCRRCKRTKYCSRKCQLKAWGYHRYWCHEVGSSHMRSTNTTTGVNTPNEPSSLNATATTAADVSNSTSTFTPNISTTVPDEISNRDENSIPE
B1: the binding entry in experiment [2] is given as “binds”.
